Laboratory results from publication PMC5481773, “Structural insights into the function of ZRANB3 in replication stress response” (Nature Communications, 2017).
Positions count from the first letter of the chain named. Construct, isoform or probe ends are uncertain for at least one entry. Weaker means in comparison with the reference protein, sequence or condition of that experiment. At least one verdict rests on a figure or table, not on a statement of the authors. Where a protein sequence is shown, tags need not be part of it.

Experiments:
[1] = target: T1, ZRANB3 HNH domain K1046A,R1048A (human) (UniProt Q5FWF4); test: EMSA; conditions: 4 mM EDTA, 4-32 uM protein, EMSA: 50 mM Tris-HCl pH 7.5, 5% glycerol, 1 mM DTT, 0.1 mg/ml BSA, 1 nM DNA, 4 C, 30 min, 5% native PAGE in 0.5x TBE, recombinant protein, residues 871-1079, protein details: N-terminal His6-Trx (pNH-TrxT), label: 5' 32P on strand 1 (S7)
T1 sequence (looked up): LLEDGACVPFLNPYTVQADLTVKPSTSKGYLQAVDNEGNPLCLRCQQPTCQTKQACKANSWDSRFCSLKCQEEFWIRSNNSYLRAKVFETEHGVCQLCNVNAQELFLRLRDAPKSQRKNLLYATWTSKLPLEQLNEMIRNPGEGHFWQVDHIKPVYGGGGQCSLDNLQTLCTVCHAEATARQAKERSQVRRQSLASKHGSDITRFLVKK

[2] = target: T2, ZRANB3 HNH domain R1009A (human) (UniProt Q5FWF4); test: EMSA; conditions: 4 mM EDTA, 4-32 uM protein, EMSA: 50 mM Tris-HCl pH 7.5, 5% glycerol, 1 mM DTT, 0.1 mg/ml BSA, 1 nM DNA, 4 C, 30 min, 5% native PAGE in 0.5x TBE, recombinant protein, residues 871-1079, protein details: N-terminal His6-Trx (pNH-TrxT), label: 5' 32P on strand 1 (S7)
T2 sequence (looked up): T1 sequence (looked up) with R139A, A176K, A178R

“CCTCGATCCTACCAACCAGATGACGCGCTGCTACGTGCTACCGGAAGTCG / CGACTTCCGGTAGCACGTAGCAGCGGCTCGCCACGAACTGCACTCTAGGC [EMSA splayed duplex]”: binds more weakly [1]; binds more weakly [2].
